Results are given in words; binding and its absence hold for the method and conditions named. In cells and extracts the contact can be indirect. Here binding means that the protein was enriched with, or labelled near, the bait; the list need not be complete. Sequences can lack the tags named with a protein.
Target: T1, FLAG-tagged full-length (FL) Trim59 (mouse) (UniProt Q922Y2)
T1 sequence: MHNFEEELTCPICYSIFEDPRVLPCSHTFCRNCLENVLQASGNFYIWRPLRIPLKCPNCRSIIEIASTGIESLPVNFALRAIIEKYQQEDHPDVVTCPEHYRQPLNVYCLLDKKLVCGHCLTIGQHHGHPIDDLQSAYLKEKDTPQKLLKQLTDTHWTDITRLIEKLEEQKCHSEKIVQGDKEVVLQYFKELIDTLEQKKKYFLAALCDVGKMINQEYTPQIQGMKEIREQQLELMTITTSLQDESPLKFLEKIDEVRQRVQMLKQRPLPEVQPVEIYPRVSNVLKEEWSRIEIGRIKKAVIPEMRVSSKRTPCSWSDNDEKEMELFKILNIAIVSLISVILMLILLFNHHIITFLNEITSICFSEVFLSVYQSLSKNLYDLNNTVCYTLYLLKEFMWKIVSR
Assay: affinity purification with mass spectrometry; HEK293T transfected with FLAG-Vector or FLAG-Trim59 for 24 h; immunoprecipitation with FLAG antibody, SDS-PAGE, silver stain, LC-MS/MS

Question: With myosin (human (endogenous in HEK293T)) as the substance, how does the binding read?
Answer: binds

Source: paper PMC5833458
